About 610 (0.16%) of roughly 390,000 compounds were called active. Inconclusive results, whose numbers are uncertain, are shown with a selection of clear calls. Calls follow the shape of the dose curve; as a rule, active = well fitted inhibition curve with a large enough effect; inconclusive = small, poorly fitted or top-dose-only effect, or effect the other way, or another doubt; inactive = no such curve, though single readings can be large or run the other way. Potencies beside an inconclusive call are fits to weak or partial responses and may not hold up.
Test: Nrf2 qHTS screen for inhibitors: counterscreen for cytotoxicity
Settings: A549 ARE-Fluc cells, CellTiter-Fluor viability, 18-24 h; series mostly up to 46 µM
In short: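 A549 ARE_Fluc cells in 5% FBS OPTI-MEM were exposed to compounds in concentration-response for 18-24 h at 37 deg C. Viability was read by CellTiter-Fluor fluorescence (Ex 405/Em 525) after 30 min, before the luciferase read.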
Potency is read from the fitted curve at half-maximal effect.

Structure (SMILES) | Potency
CCCCCN(C(=O)CN1CCC(Cc2ccccc2)CC1)c1c(N)n(CCCC)c(=O)[nH]c1=O | inconclusive: 25.9 µM [falling, single point]
N=c1n(Cc2ccc(Cl)cc2)c2ccccc2n1CC(O)c1ccco1 (stereo not given) | inconclusive: 29.1 µM [falling, partial curve, poor fit]
O=C(O)c1ccc(Nc2ncc([N+](=O)[O-])cc2[N+](=O)[O-])cc1 | active: 18.4 µM
CC(C)C(=O)NC(c1ccco1)c1c(O)ccc2ccccc12 (stereo not given) | inactive
Cc1cc(Cl)ccc1NC(=O)CCC(=O)O | inconclusive: 23.1 µM [activator, single point]
O=C1CCC(C(=O)N(CCO)Cc2ccccc2)CN1CCCN1CCOCC1 (stereo not given) | inactive
Cc1sc2nc(C3CC3)nc(SCC(=O)N3CC(=O)Nc4ccccc43)c2c1C | inactive
CN(C)/C=N/c1nc2ncc(-c3ccc(Cl)cc3)c(/N=C/N(C)C)n2n1 | inactive
Clc1ccccc1-c1nc2ccccc2c2nncn12 | inconclusive: 23.1 µM [falling, partial curve, poor fit]
O=C(NCCCOc1cccc(CN2CCCCC2)c1)c1ccc(Cl)c(Cl)c1 | inconclusive: 29.1 µM [falling, single point]
Cc1cccc(N2CCN(S(=O)(=O)c3ccc(-c4ccc(=O)[nH]n4)o3)CC2)c1C | inconclusive: 32.6 µM [falling, partial curve, poor fit]
O=C(CSc1nc2ccccc2c(=O)n1CCCN1CCOCC1)Nc1ccccc1OC(F)F | inactive
Cc1ccc(NC2=C(Cl)C(=O)c3ccccc3C2=O)cc1 | inconclusive: 29.1 µM [falling, single point]
COc1ccc(NC(=O)CCC(=O)N/N=C/c2ccc([N+](=O)[O-])s2)cc1 | inconclusive: 29.1 µM [falling, single point]
COc1ccc(-n2nc3c(N4CCC(C(=O)NCc5ccccc5C)CC4)nnc(C)c3c2C)cc1 | inconclusive: 16.4 µM [falling, partial curve, poor fit]
N#Cc1c(Cl)cccc1N1CCCC1 | inconclusive: 23.1 µM [activator, partial curve]
CS(=O)(=O)c1nsc2nc(=O)c(/C=C3\C=Nc4ccccc43)c(N)n12 | inconclusive: 16.4 µM [falling, single point]
Cc1ccc(CSc2cn(CC(=O)N3CCCCCC3)c3ccccc23)cc1 | inactive
CN(CC(=O)Nc1ccccc1Cl)C(=O)Cn1cnc2ccc(Cl)cc2c1=O | inactive
Cc1cccn2c(=O)c(C=Nc3ccccc3)c(NCc3ccco3)nc12 | inactive
Cc1nc(NCCO)c(C#N)c2c1COC(C)(C)C2 | inactive
Cc1c(C)n(Cc2ccc(Cl)cc2)c2ccc(C(=O)NCCCN3CCOCC3)cc12 | inconclusive: 29.1 µM [falling, single point]

Structure (SMILES) | Potency
CCc1c(C)sc(NC(=O)C2CC2)c1C(=O)OC(C)C | inconclusive: 20.6 µM [activator, partial curve, poor fit]
COc1ccc(-c2cc(C(=O)NN3CCOCC3)c3ccccc3n2)cc1OC | inactive
COc1ccc(C(=O)NNC2=CC(=O)CC(C)(C)C2)cc1 | inactive
O=C(NC(=S)Nc1ccc(CN2CCOCC2)cc1)c1ccc2c(c1)OCCO2 | inconclusive: 32.6 µM [falling, partial curve, poor fit]
CCCS(=O)(=O)Nc1ccc(Nc2c3ccccc3nc3ccccc23)c(OC)c1 | inconclusive: 23.1 µM [falling, partial curve]
Cc1cccc(-n2ncc3c(NCc4ccco4)ncnc32)c1 | inconclusive: 23.1 µM [falling, single point]
CC1=CC(=O)C(C(C)C)=C/C1=N/OS(=O)(=O)c1ccccc1 | inconclusive: 20.6 µM [falling, single point]
CCC(C)Sc1cc(-c2nc3cc(C)ccn3c2NC2CCCCC2)ccc1OC (stereo not given) | inconclusive: 16.4 µM [falling, single point]
CN(C)CCNC(=O)/C=C/c1cn(-c2ccccc2)nc1-c1cc2ccccc2oc1=O | inactive
CCS(=O)(=O)c1ccc2oc(SCC(=O)NC3CCCC(C)C3C)nc2c1 (stereo not given) | inactive
Cc1cccc(N(C(=O)c2nsc(Cl)c2Cl)C(C(=O)NC2CCCC2)c2ccc(O)cc2)c1C (stereo not given) | inconclusive: 25.9 µM [falling, single point]
O=C(NCc1ccco1)C1CCN(C(=O)c2cc3sccc3n2Cc2ccc(Cl)cc2)CC1 | inconclusive: 16.4 µM [falling, single point]
Cc1ccc(N=Nc2c(=O)[nH]n3c(=O)cc(C)[nH]c23)cc1 | inconclusive: 25.9 µM [falling, single point]
CC(=O)Nc1ccccc1-c1nc2ccccc2n(C(C)C(=O)Nc2ccccc2C(F)(F)F)c1=O (stereo not given) | inactive
CCn1cc2nc(SCc3ccccc3Cl)n(Cc3ccc(OC)cc3)c(=O)c2n1 | inconclusive: 32.6 µM [falling, partial curve, poor fit]
CCOc1c(Br)cc(CNc2ccc3c(c2)OCCO3)cc1OC | inconclusive: 5.17 µM [falling, partial curve, poor fit]
NNC(=O)c1ccc(OCC2CC(c3ccc(Cl)cc3)=NO2)cc1 (stereo not given) | inconclusive: 23.1 µM [falling, single point]
O=[N+]([O-])c1cc(-c2nnc(C34CC5CC(CC(C5)C3)C4)o2)cc([N+](=O)[O-])c1 | inconclusive: 23.1 µM [activator, partial curve, poor fit]
O=C(NCC(=O)N1CCN(c2ccc([N+](=O)[O-])cc2)CC1)c1ccco1 | inconclusive: 20.6 µM [falling, partial curve, poor fit]
Cc1ccc(Cl)cc1NC(=O)c1cc2ccccc2cc1O | inconclusive: 10.3 µM [falling, partial curve, poor fit]
C=C[C@@H]1c2cccc(C)c2N(S(=O)(=O)c2ccc(C)cc2)[C@H](c2ccc(OC(C)=O)cc2)C1(C#N)C#N | inconclusive: 20.6 µM [falling, partial curve, poor fit]
CCN(Cc1nc(-c2ccc(OC)c(OC)c2)no1)S(=O)(=O)c1ccc(OC)cc1 | inactive

Structure (SMILES) | Potency
OCCN(Cc1cccnc1)Cc1ccccn1 | active: 20.6 µM
Cc1ccc(C(=O)NCCSC2CCCCC2)cc1S(=O)(=O)Nc1ccccc1 | inconclusive: 29.1 µM [falling, single point]
O=C1c2cccc3cccc(c23)C(=O)N1CC1CCN(CC(O)COCc2ccc3c(c2)OCO3)CC1 (stereo not given) | inconclusive: 23.1 µM [falling, single point]
COc1cc(CNC(=O)c2cnc(SC)nc2-c2ccccc2)cc(OC)c1OC | inactive
CCOc1c(Cl)cc(CNc2ccc(N3CCCC3)cc2)cc1OC | inconclusive: 32.6 µM [falling, single point]
CC(=O)N(/C=C1\SC(=S)N(c2ccccc2)C1=O)c1ccccc1 | inactive
Cc1n[nH]c(=O)c2c(NC(=O)CSc3nc4ccccc4c(=O)n3-c3ccc(OC(F)F)cc3)oc(C)c12 | inconclusive: 0.651 µM [falling, partial curve, poor fit]
CCN(CC)CCNC(=O)c1ccc(NC(=O)C2CCN(c3ncnc4sc(C)c(C)c34)CC2)cc1 | inconclusive: 3.66 µM [activator, partial curve, poor fit]
O=S(=O)(Nc1nc2ccccc2nc1N1CCN(c2ccccc2F)CC1)c1ccc(Cl)cc1 | inconclusive: 2.91 µM [falling, single point]
COc1cc(C(=O)NC2CCN(C)CC2)ccc1Nc1ncc2c(n1)N(C1CCCCC1)CCC(=O)N2C | inconclusive: 18.4 µM [falling, partial curve, poor fit]
CC(C)(C)c1ccc(S(=O)(=O)N2CCC(c3nc4ccc(Cl)cc4[nH]3)CC2)cc1 | inconclusive: 23.1 µM [falling, single point]
Fc1ccc2[nH]c3c(N4CCN(Cc5ccc6c(c5)OCO6)CC4)ncnc3c2c1 | inconclusive: 16.4 µM [falling, partial curve]
CCCOP(=O)(OCCC)c1c([N+](=O)[O-])cc(C(F)(F)F)cc1[N+](=O)[O-] | inconclusive: 20.6 µM [falling, single point]
O=C(Nc1ccc(N2CCCC2)c(S(=O)(=O)Nc2cccc(C(F)(F)F)c2)c1)c1cccs1 | inconclusive: 29.1 µM [falling, partial curve, poor fit]
Cc1c(C(=O)Nc2ccc3c(c2)OCCO3)sc2nc(-c3ccccc3)cn12 | inconclusive: 13 µM [falling, partial curve]
COc1cc2cnc(-c3ccccc3)c(C(=O)c3ccc(OCc4ccccc4)cc3)c2cc1OC | inactive
CC(C)(C)OC(=O)N1CCC(c2c(C(=O)NCCN3CCC(Cc4ccccc4)CC3)cnn2-c2cccc(Cl)c2)CC1 | inconclusive: 23.1 µM [falling, single point]
Cc1cccc(N2CCN(C(=O)c3ccc4nc(-c5ccco5)c(-c5ccco5)nc4c3)CC2C)c1 (stereo not given) | inconclusive: 20.6 µM [falling, single point]
O=C(Nc1ccccc1F)c1nc(S(=O)(=O)Cc2ccccc2F)ncc1Cl | inconclusive: 18.4 µM [falling, single point]
c1ccc(CCNc2nc(-c3ccccn3)nc3ccccc23)cc1 | inconclusive: 14.6 µM [falling, partial curve, poor fit]
O=C(NCCCCc1ccccc1)c1ccc(Br)cc1 | inconclusive: 3.66 µM [activator, partial curve]

Shown as tab-separated lines: 6 of the compounds above.
Structure (SMILES)	Potency
CCN(CC)CCNC(=O)c1ccc(NC(=O)C2CCN(c3ncnc4sc(C)c(C)c34)CC2)cc1	inconclusive: 3.66 µM [activator, partial curve, poor fit]
O=S(=O)(Nc1nc2ccccc2nc1N1CCN(c2ccccc2F)CC1)c1ccc(Cl)cc1	inconclusive: 2.91 µM [falling, single point]
COc1cc(C(=O)NC2CCN(C)CC2)ccc1Nc1ncc2c(n1)N(C1CCCCC1)CCC(=O)N2C	inconclusive: 18.4 µM [falling, partial curve, poor fit]
CC(C)(C)c1ccc(S(=O)(=O)N2CCC(c3nc4ccc(Cl)cc4[nH]3)CC2)cc1	inconclusive: 23.1 µM [falling, single point]
Fc1ccc2[nH]c3c(N4CCN(Cc5ccc6c(c5)OCO6)CC4)ncnc3c2c1	inconclusive: 16.4 µM [falling, partial curve]
CCCOP(=O)(OCCC)c1c([N+](=O)[O-])cc(C(F)(F)F)cc1[N+](=O)[O-]	inconclusive: 20.6 µM [falling, single point]

— PubChem BioAssay AID504648 (National Center for Advancing Translational Sciences (NCATS), 2011)
